# Reference: US20240124883
# For part of these data: A negative result means that nothing was seen under these conditions. For part of these data: Construct, isoform or probe ends are uncertain for at least one entry.
# What was measured:
# [1] = target: beta-synuclein (monomers and fibrils) (UniProt Q16143); assay: binding assay; details: slot blot; label: biotin; single-stranded DNA
# [2] = target: alpha-synuclein 130 fibrils (C-terminally truncated) (Homo sapiens) (UniProt P37840); assay: binding assay; details: slot blot, purified recombinant protein, protein details: untagged, E. coli BL21(DE3) pET3a, fibrils, label: biotin, single-stranded DNA
# [3] = target: gamma-synuclein (monomers and fibrils) (UniProt O76070); assay: binding assay; details: slot blot; label: biotin; single-stranded DNA
# [4] = tested on: amyloid Bri (ABri) fibrils; assay: binding assay; details: slot blot; label: biotin; single-stranded DNA
# [5] = target: alpha-synuclein 122 fibrils (C-terminally truncated) (Homo sapiens) (UniProt P37840); assay: binding assay; details: slot blot, PBST, 4 C overnight; purified recombinant protein; protein details: untagged, E. coli BL21(DE3) pET3a, fibrils; label: biotin; single-stranded DNA
# [6] = target: alpha-synuclein 140 monomer (full length) (Homo sapiens) (UniProt P37840); assay: binding assay; details: slot blot; purified recombinant protein; protein details: untagged, E. coli BL21(DE3) pRK172; label: biotin; single-stranded DNA
# [7] = target: alpha-synuclein 107 monomer (C-terminally truncated) (Homo sapiens) (UniProt P37840); assay: binding assay; details: slot blot, fibril-specific, PBST 4 C; purified recombinant protein; label: biotin; single-stranded DNA
# [8] = target: amyloid beta 42 (Abeta42) monomer (UniProt P05067); assay: binding assay; details: slot blot, specificity control; purified recombinant protein; label: biotin; single-stranded DNA
# [9] = target: islet amyloid polypeptide (IAPP) fibrils (UniProt P10997); assay: binding assay; details: slot blot; label: biotin; single-stranded DNA
# [10] = target: alpha-synuclein 115 fibrils (C-terminally truncated) (Homo sapiens) (UniProt P37840); assay: binding assay; details: slot blot, purified recombinant protein, protein details: untagged, E. coli BL21(DE3) pET3a, fibrils, label: biotin, single-stranded DNA
# [11] = target: alpha-synuclein 115 monomer (C-terminally truncated) (Homo sapiens) (UniProt P37840); assay: binding assay; details: slot blot, fibril-specific, PBST 4 C; purified recombinant protein; label: biotin; single-stranded DNA
# [12] = target: amyloid Bri (ABri) monomer (UniProt Q9Y287); assay: binding assay; details: slot blot, specificity control; purified recombinant protein; label: biotin; single-stranded DNA
# [13] = target: amyloid beta 42 (Abeta42) fibrils (UniProt P05067); assay: binding assay; details: slot blot; label: biotin; single-stranded DNA
# [14] = target: islet amyloid polypeptide (IAPP) monomer (UniProt P10997); assay: binding assay; details: slot blot, specificity control; purified recombinant protein; label: biotin; single-stranded DNA
# [15] = target: alpha-synuclein 130 monomer (C-terminally truncated) (Homo sapiens) (UniProt P37840); assay: binding assay; details: slot blot, fibril-specific, PBST 4 C; purified recombinant protein; label: biotin; single-stranded DNA
# tubulin = assay: binding assay; details: slot blot; negative control protein; label: biotin; single-stranded DNA
# [16] = target: alpha-synuclein 140 fibrils (full length) (Homo sapiens) (UniProt P37840); assay: binding assay; details: slot blot; purified recombinant protein; protein details: untagged, E. coli BL21(DE3) pRK172, fibrils; label: biotin; single-stranded DNA
# [17] = target: alpha-synuclein 122 monomer (Homo sapiens) (UniProt P37840); assay: binding assay; details: slot blot; binds only fibril forms; purified recombinant protein; protein details: untagged, E. coli BL21(DE3) pET3a; label: biotin; single-stranded DNA
# [18] = target: alpha-synuclein 107 fibrils (C-terminally truncated) (Homo sapiens) (UniProt P37840); assay: binding assay; details: slot blot; purified recombinant protein; protein details: untagged, E. coli BL21(DE3) pET3a, fibrils; label: biotin; single-stranded DNA
# [19] = target: alpha-synuclein (wild type, expressed in HEK293 with alpha-syn 122 seeds) (Homo sapiens) (UniProt P37840); assay: activity in cells; details: protein in cells, protein details: seeds are recombinant alpha-syn 1-122, single-stranded DNA, dose not given here
# [20] = target: alpha-synuclein 122 fibrils (C-terminally truncated) (Homo sapiens) (UniProt P37840); assay: inhibition of the protein; details: inhibits alpha-syn 122 seeded aggregation of alpha-syn 140 (Th-S, EM, western) at seed:aptamer 1:1, 1:5, 1:20, 37 C, protein details: untagged, E. coli BL21(DE3) pET3a, label: biotin, single-stranded DNA, dose not given here
# [21] = reactive to 122, 115 and 107 forms
# [22] = reactive only to 122 and 107 forms
# [23] = reactive only to 130, 122 and 107 forms
Sequence,binding result [1],binding result [3],binding result [4],binding result [5],binding result [6],binding result [7],binding result [8],binding result [9],binding result [10],binding result [11],binding result [12],binding result [13],binding result [14],binding result [15],binding result (tubulin),binding result [16],binding result [17],binding result [18],binding result [2],"binding result [10, 23]",also measured
CCATCACACACCATTGTTCACTCCCTGTCTCTCGCACGCT [Apt20],no binding,no binding,no binding,binds,no binding,no binding,no binding,no binding,binds,no binding,no binding,no binding,no binding,no binding,no binding,no binding,no binding,binds,,,"binding result [2, 21]: no binding"
CTTTCCTTTCCTGTCCGCTTCGATAACCCTTCACACATCC [Apt15],no binding,no binding,no binding,binds,no binding,no binding,no binding,no binding,binds,no binding,no binding,no binding,no binding,no binding,no binding,no binding,no binding,binds,binds,,"functional effect of the aptamer ([19]; decreases insoluble pS129-alpha-syn in HEK cells, mainly when aptamer and seeds were co-transfected after 1 h incubation): active; functional effect of the aptamer ([20]; purified recombinant protein): active"
CGCCTCTGTCAAGTCCTTATTCACGTCTCAGTCCCTCCTA [Apt18],no binding,no binding,no binding,binds,no binding,no binding,no binding,no binding,,no binding,no binding,no binding,no binding,no binding,no binding,no binding,no binding,binds,,,"binding result [2, 22]: no binding; binding result [10, 22]: no binding"
TAGCGTTCCCCCTCACTCCTTGGTTGGTCATCATCGTCCC [Apt9],no binding,no binding,no binding,binds,no binding,no binding,no binding,no binding,,no binding,no binding,no binding,no binding,no binding,no binding,no binding,no binding,binds,binds,no binding,
CTGACACTCGGCTTTTTATCTTCCCTGCTTCGGTCCTGTC [Apt11],no binding,no binding,no binding,binds,no binding,no binding,no binding,no binding,binds,no binding,no binding,no binding,no binding,no binding,no binding,no binding,no binding,binds,binds,,"functional effect of the aptamer ([19]; decreases insoluble pS129-alpha-syn in HEK cells with alpha-syn 122 seeds, seed:aptamer 1:1 and 1:5): active; functional effect of the aptamer ([20]; stronger than Apt15, purified recombinant protein): active"
CTAGTGTCGCCTTTTGCCTCGTTGTCTCCCATTTATCTCG [Apt7],no binding,no binding,no binding,binds,no binding,no binding,no binding,no binding,binds,no binding,no binding,no binding,no binding,no binding,no binding,no binding,no binding,binds,,,"binding result [2, 21]: no binding"
CGGGCTTTGTTATCCTGATGCTCCTCCTTCCTACCACTC [Apt3],no binding,no binding,no binding,binds,no binding,no binding,no binding,no binding,,no binding,no binding,no binding,no binding,no binding,no binding,no binding,no binding,binds,binds,no binding,
AGGGTCTCTTTCGTTTTGGTGTATGTTTCTTCATTATCGG [Apt5],no binding,no binding,no binding,binds,no binding,no binding,no binding,no binding,,no binding,no binding,no binding,no binding,no binding,no binding,no binding,no binding,binds,binds,no binding,
